Measured values reported in the supplement of paper PMC10849652.
The other results are listed elsewhere or left out.

Sequences of proteins named here, by UniProt entry; tags and fusion partners are left off. A change or cut given only in a name is not applied to a line headed by its entry.
UniProt Q9H0K6: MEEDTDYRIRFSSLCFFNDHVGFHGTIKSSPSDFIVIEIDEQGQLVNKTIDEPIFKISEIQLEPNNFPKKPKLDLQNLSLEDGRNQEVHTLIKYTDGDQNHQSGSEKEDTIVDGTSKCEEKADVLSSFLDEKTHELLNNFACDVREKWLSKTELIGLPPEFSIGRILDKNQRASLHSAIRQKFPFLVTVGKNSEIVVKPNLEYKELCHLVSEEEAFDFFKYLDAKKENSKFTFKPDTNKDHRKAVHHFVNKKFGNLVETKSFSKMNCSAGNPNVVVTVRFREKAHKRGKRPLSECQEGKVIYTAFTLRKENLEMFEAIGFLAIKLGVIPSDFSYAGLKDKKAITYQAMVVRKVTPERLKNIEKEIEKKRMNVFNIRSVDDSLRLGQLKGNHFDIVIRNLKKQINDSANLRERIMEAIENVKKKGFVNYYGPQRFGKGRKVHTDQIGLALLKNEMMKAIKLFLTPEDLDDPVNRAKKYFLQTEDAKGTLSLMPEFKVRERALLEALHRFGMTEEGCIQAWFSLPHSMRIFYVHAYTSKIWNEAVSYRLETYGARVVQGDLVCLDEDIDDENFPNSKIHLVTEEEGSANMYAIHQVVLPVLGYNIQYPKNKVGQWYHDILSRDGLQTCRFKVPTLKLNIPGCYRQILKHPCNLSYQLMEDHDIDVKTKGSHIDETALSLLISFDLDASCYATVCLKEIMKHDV
UniProt Q96M27: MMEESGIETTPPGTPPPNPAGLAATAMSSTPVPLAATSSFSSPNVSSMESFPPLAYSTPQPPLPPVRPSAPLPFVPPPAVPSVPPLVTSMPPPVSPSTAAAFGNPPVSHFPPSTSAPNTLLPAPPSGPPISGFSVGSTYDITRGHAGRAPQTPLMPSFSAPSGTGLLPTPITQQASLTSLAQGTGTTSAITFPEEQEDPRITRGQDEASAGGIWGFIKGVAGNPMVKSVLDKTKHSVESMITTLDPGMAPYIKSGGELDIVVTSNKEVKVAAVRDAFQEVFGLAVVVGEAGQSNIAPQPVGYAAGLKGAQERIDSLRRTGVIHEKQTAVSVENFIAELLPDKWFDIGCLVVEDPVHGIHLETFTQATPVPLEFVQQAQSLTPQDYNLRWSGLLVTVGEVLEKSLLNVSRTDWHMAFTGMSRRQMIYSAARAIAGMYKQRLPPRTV
UniProt Q16401: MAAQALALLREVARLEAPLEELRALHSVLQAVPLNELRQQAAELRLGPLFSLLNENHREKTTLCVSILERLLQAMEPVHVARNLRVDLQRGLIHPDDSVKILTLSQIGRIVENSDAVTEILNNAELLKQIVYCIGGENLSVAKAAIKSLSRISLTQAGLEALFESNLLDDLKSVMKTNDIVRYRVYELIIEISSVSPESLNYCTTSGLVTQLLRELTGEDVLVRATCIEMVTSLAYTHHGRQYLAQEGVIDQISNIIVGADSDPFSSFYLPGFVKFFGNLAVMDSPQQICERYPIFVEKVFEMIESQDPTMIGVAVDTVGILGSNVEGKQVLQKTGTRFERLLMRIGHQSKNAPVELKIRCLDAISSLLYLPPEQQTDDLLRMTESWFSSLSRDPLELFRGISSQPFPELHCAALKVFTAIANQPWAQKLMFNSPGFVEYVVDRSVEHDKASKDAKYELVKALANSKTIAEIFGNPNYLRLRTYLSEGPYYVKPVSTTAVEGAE
UniProt P25786: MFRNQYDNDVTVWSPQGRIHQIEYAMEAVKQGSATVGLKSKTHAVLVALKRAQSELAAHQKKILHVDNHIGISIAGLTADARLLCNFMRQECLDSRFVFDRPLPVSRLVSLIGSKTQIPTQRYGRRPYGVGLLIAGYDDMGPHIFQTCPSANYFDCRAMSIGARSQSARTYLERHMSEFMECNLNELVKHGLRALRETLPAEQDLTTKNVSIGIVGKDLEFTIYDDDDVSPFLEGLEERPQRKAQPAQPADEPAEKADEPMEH
UniProt P25789: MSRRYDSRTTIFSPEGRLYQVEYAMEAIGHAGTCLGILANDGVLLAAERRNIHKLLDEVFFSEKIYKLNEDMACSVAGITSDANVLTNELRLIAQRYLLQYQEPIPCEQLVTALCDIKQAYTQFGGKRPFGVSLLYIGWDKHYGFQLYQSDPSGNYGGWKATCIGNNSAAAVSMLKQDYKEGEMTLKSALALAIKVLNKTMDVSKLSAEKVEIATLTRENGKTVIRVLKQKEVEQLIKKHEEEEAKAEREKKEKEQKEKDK
UniProt P35998: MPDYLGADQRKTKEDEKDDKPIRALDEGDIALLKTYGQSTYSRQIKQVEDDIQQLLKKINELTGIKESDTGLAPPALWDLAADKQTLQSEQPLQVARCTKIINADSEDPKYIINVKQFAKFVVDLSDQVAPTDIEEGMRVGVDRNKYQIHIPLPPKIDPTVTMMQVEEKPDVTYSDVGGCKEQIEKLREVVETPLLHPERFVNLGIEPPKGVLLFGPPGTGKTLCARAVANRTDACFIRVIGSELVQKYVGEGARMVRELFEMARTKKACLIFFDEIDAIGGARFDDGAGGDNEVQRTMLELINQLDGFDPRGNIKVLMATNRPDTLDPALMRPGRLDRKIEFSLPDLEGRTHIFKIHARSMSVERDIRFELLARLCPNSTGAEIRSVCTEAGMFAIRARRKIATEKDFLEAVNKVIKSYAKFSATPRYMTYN
UniProt Q9H939: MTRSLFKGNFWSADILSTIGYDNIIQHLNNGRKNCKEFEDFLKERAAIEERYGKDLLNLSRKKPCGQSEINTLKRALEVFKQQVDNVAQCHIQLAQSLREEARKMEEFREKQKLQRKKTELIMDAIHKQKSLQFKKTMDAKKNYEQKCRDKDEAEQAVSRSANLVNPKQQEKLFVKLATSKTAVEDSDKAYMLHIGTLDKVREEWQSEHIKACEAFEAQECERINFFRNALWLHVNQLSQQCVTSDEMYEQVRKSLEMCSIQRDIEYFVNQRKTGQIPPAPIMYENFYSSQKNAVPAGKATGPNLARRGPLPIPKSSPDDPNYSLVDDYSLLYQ
UniProt P35236: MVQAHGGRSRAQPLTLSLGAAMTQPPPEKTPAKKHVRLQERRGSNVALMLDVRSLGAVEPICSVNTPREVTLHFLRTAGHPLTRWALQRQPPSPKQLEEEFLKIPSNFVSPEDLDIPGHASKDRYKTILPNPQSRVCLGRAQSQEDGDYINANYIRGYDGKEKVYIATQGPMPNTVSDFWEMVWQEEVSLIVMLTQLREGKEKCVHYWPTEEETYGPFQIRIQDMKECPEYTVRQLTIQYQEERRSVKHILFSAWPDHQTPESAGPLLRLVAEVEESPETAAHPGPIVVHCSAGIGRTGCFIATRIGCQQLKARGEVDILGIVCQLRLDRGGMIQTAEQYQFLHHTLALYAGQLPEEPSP
UniProt P23219, whole entry, looked up: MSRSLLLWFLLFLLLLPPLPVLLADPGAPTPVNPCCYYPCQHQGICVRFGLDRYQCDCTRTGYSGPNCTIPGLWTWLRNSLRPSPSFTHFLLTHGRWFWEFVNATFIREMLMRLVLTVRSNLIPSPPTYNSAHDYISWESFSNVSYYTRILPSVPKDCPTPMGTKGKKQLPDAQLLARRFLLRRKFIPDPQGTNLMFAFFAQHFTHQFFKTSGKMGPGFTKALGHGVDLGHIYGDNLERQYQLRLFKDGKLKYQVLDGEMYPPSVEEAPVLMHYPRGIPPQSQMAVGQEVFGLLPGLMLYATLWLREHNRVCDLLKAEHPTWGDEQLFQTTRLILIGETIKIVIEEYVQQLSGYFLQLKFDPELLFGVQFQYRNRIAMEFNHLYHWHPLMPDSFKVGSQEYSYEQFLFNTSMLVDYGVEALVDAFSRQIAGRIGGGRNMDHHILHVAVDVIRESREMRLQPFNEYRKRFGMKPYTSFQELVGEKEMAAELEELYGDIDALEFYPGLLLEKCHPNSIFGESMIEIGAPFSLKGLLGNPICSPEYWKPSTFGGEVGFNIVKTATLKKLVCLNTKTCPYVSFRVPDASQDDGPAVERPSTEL
UniProt P62191: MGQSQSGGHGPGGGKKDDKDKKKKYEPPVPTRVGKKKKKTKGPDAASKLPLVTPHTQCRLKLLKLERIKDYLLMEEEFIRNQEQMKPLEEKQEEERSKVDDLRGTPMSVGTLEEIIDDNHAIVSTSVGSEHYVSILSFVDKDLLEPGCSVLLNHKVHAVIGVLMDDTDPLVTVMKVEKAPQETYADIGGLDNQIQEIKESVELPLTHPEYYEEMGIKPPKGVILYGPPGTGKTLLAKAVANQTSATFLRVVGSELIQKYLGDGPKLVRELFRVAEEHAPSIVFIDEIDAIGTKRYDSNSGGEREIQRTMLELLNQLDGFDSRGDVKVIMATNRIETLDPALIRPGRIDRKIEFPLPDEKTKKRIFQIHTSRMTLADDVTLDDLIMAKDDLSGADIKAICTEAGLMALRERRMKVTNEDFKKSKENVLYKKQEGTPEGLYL
UniProt O60256: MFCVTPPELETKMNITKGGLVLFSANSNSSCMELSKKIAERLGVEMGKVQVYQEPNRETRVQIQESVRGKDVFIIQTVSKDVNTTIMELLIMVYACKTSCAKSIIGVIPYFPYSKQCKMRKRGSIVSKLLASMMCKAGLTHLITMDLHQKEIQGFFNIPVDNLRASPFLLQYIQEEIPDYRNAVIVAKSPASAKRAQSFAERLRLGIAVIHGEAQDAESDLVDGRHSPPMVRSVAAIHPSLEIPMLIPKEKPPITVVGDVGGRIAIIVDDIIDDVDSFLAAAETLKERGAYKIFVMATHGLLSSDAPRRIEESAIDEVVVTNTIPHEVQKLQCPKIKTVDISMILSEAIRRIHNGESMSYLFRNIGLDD
UniProt Q92530: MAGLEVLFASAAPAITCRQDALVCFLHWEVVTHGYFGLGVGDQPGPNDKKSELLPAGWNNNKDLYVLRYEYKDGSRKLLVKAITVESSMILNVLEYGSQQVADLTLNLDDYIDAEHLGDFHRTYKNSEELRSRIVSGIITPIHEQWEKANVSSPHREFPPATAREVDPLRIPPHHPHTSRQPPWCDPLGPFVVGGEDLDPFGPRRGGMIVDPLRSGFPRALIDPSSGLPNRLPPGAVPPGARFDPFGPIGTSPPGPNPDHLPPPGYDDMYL
UniProt O75832: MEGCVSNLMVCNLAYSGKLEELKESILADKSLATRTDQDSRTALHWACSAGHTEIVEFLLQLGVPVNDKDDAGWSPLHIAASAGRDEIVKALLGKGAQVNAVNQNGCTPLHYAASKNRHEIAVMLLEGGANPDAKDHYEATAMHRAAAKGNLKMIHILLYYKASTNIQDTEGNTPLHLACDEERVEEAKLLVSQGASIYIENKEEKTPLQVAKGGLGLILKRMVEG
UniProt Q05209: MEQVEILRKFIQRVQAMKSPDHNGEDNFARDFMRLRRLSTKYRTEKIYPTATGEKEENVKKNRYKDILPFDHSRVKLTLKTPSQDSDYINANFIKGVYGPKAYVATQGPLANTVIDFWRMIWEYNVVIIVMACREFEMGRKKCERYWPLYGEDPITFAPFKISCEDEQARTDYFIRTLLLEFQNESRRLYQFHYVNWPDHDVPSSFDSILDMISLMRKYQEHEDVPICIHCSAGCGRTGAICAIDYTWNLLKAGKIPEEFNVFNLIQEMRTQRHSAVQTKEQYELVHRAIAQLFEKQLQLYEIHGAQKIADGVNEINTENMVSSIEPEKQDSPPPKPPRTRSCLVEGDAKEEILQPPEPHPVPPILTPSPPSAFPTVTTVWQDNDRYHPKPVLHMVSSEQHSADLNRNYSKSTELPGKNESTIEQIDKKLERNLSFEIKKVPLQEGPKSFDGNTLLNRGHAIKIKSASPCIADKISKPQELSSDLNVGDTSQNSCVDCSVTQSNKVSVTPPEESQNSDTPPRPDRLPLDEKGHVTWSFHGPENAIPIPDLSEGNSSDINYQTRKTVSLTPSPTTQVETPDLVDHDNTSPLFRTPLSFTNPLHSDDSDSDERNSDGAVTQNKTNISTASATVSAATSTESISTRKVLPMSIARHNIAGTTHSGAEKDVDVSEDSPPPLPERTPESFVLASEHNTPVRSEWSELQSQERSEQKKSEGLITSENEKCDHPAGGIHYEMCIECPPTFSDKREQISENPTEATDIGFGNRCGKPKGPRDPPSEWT
UniProt Q8N0Z8: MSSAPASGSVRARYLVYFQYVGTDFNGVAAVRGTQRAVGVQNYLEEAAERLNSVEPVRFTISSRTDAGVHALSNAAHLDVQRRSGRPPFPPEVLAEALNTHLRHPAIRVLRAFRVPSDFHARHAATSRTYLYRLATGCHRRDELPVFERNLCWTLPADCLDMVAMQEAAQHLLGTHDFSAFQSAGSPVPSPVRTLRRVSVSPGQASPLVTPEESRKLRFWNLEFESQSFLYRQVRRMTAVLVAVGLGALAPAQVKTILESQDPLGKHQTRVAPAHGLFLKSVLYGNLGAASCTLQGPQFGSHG

Experiments:
Experiment in all cases: log2 fold change, soluble protein after heating vs DMSO (PISA); higher = thermal stabilisation; K562 lysate, 10 uM; active = over 0.2 and 3.5 SD of the protein, either way, in both replicates (recomputed)
vemurafenib = compound: CCCS(=O)(=O)Nc1ccc(F)c(C(=O)c2c[nH]c3ncc(-c4ccc(Cl)cc4)cc23)c1F [vemurafenib]
Method in brief: (§1)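 Following dounce homogenisation of K562 pellets in PBS pH 7.4 with 1 mM MgCl2, crude extract at 1 mg/mL protein was incubated for 30 min with 10 μM compound. Aliquots were then heated for 3 min over 48°C-58°C and pooled, NP-40 was added to 0.5% at 4°C, and soluble protein was recovered as the supernatant at 21,000xg for 90 min. Channel-sum-equalised TMTpro 16plex LC-MS/MS quantified this protein. Each value, from duplicates, is a log-two fold change in thermal stability relative to solvent controls.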

[1] = compound: CCCS(=O)(=O)Nc1ccc(F)c(C(=O)c2c[nH]c3ncc(Cl)cc23)c1F
Method in brief: as §1

barasertib = compound: CCN(CCCOc1ccc2c(Nc3cc(CC(=O)Nc4cccc(F)c4)[nH]n3)ncnc2c1)CCOP(=O)(O)O [barasertib]
Method in brief: as §1

[2] = compound: CC[C@@H]1C(=O)N(C)c2cnc(Nc3ccc(C(=O)NC4CCN(C)CC4)cc3OC)nc2N1C1CCCC1
Method in brief: as §1

volasertib = compound: CC[C@@H]1C(=O)N(C)c2cnc(Nc3ccc(C(=O)N[C@H]4CC[C@H](N5CCN(CC6CC6)CC5)CC4)cc3OC)nc2N1C(C)C [volasertib]
Method in brief: as §1

[3] = compound: CCn1c(C(=O)N(C2CC2)C2CC2)cc2c3c(ncn3C)c(Nc3cc(C)n(C)n3)nc21
Method in brief: as §1

[4] = compound: CCn1cc(-c2ccnc3[nH]c(-c4cccc(CN(C)C)c4)cc23)c(-c2ccc(NC(=O)N(C)C)cc2)n1
Method in brief: as §1

[5] = compound: CN1CCC(CNc2ccc3ncc(-c4cccc(OC(F)(F)F)c4)n3n2)CC1
Method in brief: as §1

saracatinib = compound: CN1CCN(CCOc2cc(OC3CCOCC3)c3c(Nc4c(Cl)ccc5c4OCO5)ncnc3c2)CC1 [saracatinib]
Method in brief: as §1

sotrastaurin = compound: CN1CCN(c2nc(C3=C(c4c[nH]c5ccccc45)C(=O)NC3=O)c3ccccc3n2)CC1 [sotrastaurin]
Method in brief: as §1

alvocidib = compound: CN1CC[C@H](c2c(O)cc(O)c3c(=O)cc(-c4ccccc4Cl)oc23)[C@H](O)C1 [alvocidib]
Method in brief: as §1

Tubastatin A = compound: CN1CCc2c(c3ccccc3n2Cc2ccc(C(=O)NO)cc2)C1 [Tubastatin A]
Method in brief: as §1

[6] = compound: CNC(=O)C1=CC=CC=C1NC2=NC(=NC=C2Cl)NC3=C(C=C(C=C3)N4CCOCC4)OC
Method in brief: as §1

defactinib = compound: CNC(=O)c1ccc(Nc2ncc(C(F)(F)F)c(NCc3nccnc3N(C)S(C)(=O)=O)n2)cc1 [defactinib]
Method in brief: as §1

[7] = compound: CNc1nc(-c2ccc3c(N)n[nH]c3c2)cc(N2C[C@@H](C(=O)NC3CCCCC3)CC[C@H]2C)n1
Method in brief: as §1

encorafenib = compound: COC(=O)N[C@@H](C)CNc1nccc(-c2cn(C(C)C)nc2-c2cc(Cl)cc(NS(C)(=O)=O)c2F)n1 [encorafenib]
Method in brief: as §1

[8] = compound: COC(=O)[C@H](CCSC)NC(=O)C1=C(C=C(C=C1)NC[C@H](CS)N)C2=CC=CC=C2
Method in brief: as §1

alisertib = compound: COc1cc(Nc2ncc3c(n2)-c2ccc(Cl)cc2C(c2c(F)cccc2OC)=NC3)ccc1C(=O)O [alisertib]
Method in brief: as §1

[9] = compound: COc1cc2nc(-c3cc(F)ccc3O)nc(N[C@@H]3CNC[C@H]3C(C)(C)O)c2cc1OC
Method in brief: as §1

gefitinib = compound: COc1cc2ncnc(Nc3ccc(F)c(Cl)c3)c2cc1OCCCN1CCOCC1 [gefitinib]
Method in brief: as §1

Measured: log2 fold change

PUS7L (UniProt Q9H0K6)
inactive: vemurafenib -0.016 | [1] 0.008 | barasertib -0.004 | [2] 0.015 | volasertib -0.013 | [3] -0.006 | [4] -0.066 | [5] 0.058 | saracatinib -0.015 | sotrastaurin 0.008 | alvocidib -0.027 | Tubastatin A 0.005 | [6] 0.031 | defactinib -0.019 | [7] 0.021 | encorafenib 0.003 | [8] 0 | alisertib -0.015 | [9] -0.001 | gefitinib 0.02

PRRC1 (UniProt Q96M27)
inactive: vemurafenib -0.014 | [1] -0.002 | barasertib 0.022 | [2] 0.064 | volasertib 0.029 | [3] -0.027 | [4] -0.004 | [5] -0.005 | saracatinib 0.023 | sotrastaurin -0.01 | alvocidib -0.044 | Tubastatin A 0.038 | [6] 0.007 | defactinib 0.038 | [7] 0.032 | encorafenib 0.075 | [8] -0.025 | alisertib 0.014 | [9] -0.003 | gefitinib -0.005

PSMD5 (UniProt Q16401)
inactive: vemurafenib -0.012 | [1] 0.001 | barasertib -0.016 | [2] 0.021 | volasertib -0.015 | [3] 0.03 | [4] 0.021 | [5] -0.02 | saracatinib 0.012 | sotrastaurin -0.005 | alvocidib -0.016 | Tubastatin A -0.036 | [6] -0.026 | defactinib -0.003 | [7] 0 | encorafenib 0.004 | [8] -0.035 | alisertib 0.013 | [9] -0.011 | gefitinib -0.014

PWP1 (UniProt Q13610)
active: [4] 0.62
inactive: vemurafenib -0.09 | [1] 0.019 | barasertib 0.012 | [2] -0.032 | volasertib -0.004 | [3] -0.023 | [5] -0.039 | saracatinib 0.01 | sotrastaurin -0.021 | alvocidib 0.063 | Tubastatin A -0.017 | [6] -0.012 | defactinib 0.002 | [7] -0.046 | encorafenib 0.046 | [8] -0.013 | alisertib -0.014 | [9] 0.008 | gefitinib -0.017

PSMA1 isoform 2 (UniProt P25786)
inactive: vemurafenib 0.026 | [1] -0.01 | barasertib -0.06 | [2] 0.028 | volasertib 0.051 | [3] -0.03 | [4] -0.06 | [5] 0.04 | saracatinib -0.009 | sotrastaurin -0.006 | alvocidib 0.013 | Tubastatin A 0.036 | [6] 0.002 | defactinib -0.023 | [7] 0.031 | encorafenib -0.017 | [8] -0.027 | alisertib -0.004 | [9] 0.023 | gefitinib -0.017

PSMA4 (UniProt P25789)
inactive: vemurafenib 0 | [1] 0 | barasertib -0.035 | [2] 0.013 | volasertib 0.038 | [3] -0.012 | [4] -0.024 | [5] 0.022 | saracatinib -0.004 | sotrastaurin 0.023 | alvocidib 0.019 | Tubastatin A 0.026 | [6] 0 | defactinib -0.011 | [7] 0.012 | encorafenib -0.005 | [8] -0.004 | alisertib -0.007 | [9] 0.01 | gefitinib 0.014

PSMC2 (UniProt P35998)
inactive: vemurafenib -0.022 | [1] 0.02 | barasertib -0.008 | [2] -0.023 | volasertib -0.031 | [3] 0.009 | [4] 0.007 | [5] -0.055 | saracatinib 0.001 | sotrastaurin 0.011 | alvocidib 0.017 | Tubastatin A -0.006 | [6] -0.002 | defactinib 0.017 | [7] 0.04 | encorafenib -0.012 | [8] 0.064 | alisertib 0.02 | [9] 0.006 | gefitinib -0.01

PSTPIP2 (UniProt Q9H939)
inactive: vemurafenib 0.022 | [1] 0.018 | barasertib 0.01 | [2] -0.029 | volasertib -0.037 | [3] -0.007 | [4] 0.063 | [5] -0.09 | saracatinib 0.032 | sotrastaurin 0 | alvocidib -0.006 | Tubastatin A -0.04 | [6] 0.031 | defactinib -0.016 | [7] 0.026 | encorafenib 0.023 | [8] 0.002 | alisertib -0.052 | [9] -0.03 | gefitinib -0.028

PTPN7 isoform 3 (UniProt P35236)
inactive: vemurafenib 0.016 | [1] 0.06 | barasertib 0.026 | [2] -0.025 | volasertib -0.06 | [3] 0.063 | [4] -0.076 | [5] 0.124 | saracatinib 0.005 | sotrastaurin 0.015 | alvocidib -0.082 | Tubastatin A -0.138 | [6] 0.057 | defactinib 0.017 | [7] 0.038 | encorafenib -0.051 | [8] 0.122 | alisertib 0.021 | [9] -0.023 | gefitinib -0.025

PTGS1 isoform 6 (UniProt P23219)
inactive: vemurafenib 0.058 | [1] 0.076 | barasertib 0.039 | [2] 0.005 | volasertib -0.022 | [3] -0.012 | [5] 0.134 | saracatinib -0.033 | sotrastaurin 0.065 | alvocidib -0.154 | Tubastatin A 0.023 | [6] -0.052 | defactinib -0.119 | [7] -0.057 | encorafenib -0.008 | [8] 0.027 | alisertib -0.051 | [9] 0.021 | gefitinib -0.011
active: [4] -0.279

PSMC1 (UniProt P62191)
inactive: vemurafenib 0.006 | [1] 0.028 | barasertib 0.003 | [2] -0.037 | volasertib -0.028 | [3] 0.048 | [4] 0.103 | [5] 0 | saracatinib -0.015 | sotrastaurin 0.005 | alvocidib -0.01 | Tubastatin A -0.028 | [6] 0.013 | defactinib -0.008 | [7] -0.026 | encorafenib -0.01 | [8] 0.087 | alisertib 0.018 | [9] -0.008 | gefitinib -0.008

PRPSAP2 (UniProt O60256)
inactive: vemurafenib 0.003 | [1] -0.008 | barasertib -0.039 | [2] 0.031 | volasertib 0.015 | [3] 0.001 | [4] 0 | [5] 0.087 | saracatinib 0.053 | sotrastaurin -0.011 | alvocidib -0.059 | Tubastatin A 0.011 | [6] 0.02 | defactinib 0.007 | [7] 0.023 | encorafenib 0.007 | [8] -0.012 | alisertib -0.007 | [9] -0.006 | gefitinib -0.053

PSMF1 (UniProt Q92530)
inactive: vemurafenib 0.025 | [1] -0.016 | barasertib 0.064 | [2] 0.097 | volasertib 0.025 | [3] 0.049 | [4] -0.219 | [5] 0.149 | saracatinib 0 | sotrastaurin -0.047 | alvocidib -0.121 | Tubastatin A -0.006 | [6] -0.001 | defactinib -0.022 | [7] 0.043 | encorafenib 0.004 | [8] -0.035 | alisertib -0.012 | [9] 0.002 | gefitinib 0.007

PSMD10 (UniProt O75832)
inactive: vemurafenib 0.01 | [1] -0.003 | barasertib 0.057 | [2] -0.019 | volasertib -0.006 | [3] -0.011 | [4] -0.179 | [5] 0 | saracatinib -0.03 | sotrastaurin -0.011 | alvocidib 0 | Tubastatin A 0.002 | [6] -0.006 | defactinib -0.018 | [7] 0.028 | encorafenib -0.016 | [8] -0.008 | alisertib 0.018 | [9] 0.009 | gefitinib -0.045

PTPN12 (UniProt Q05209)
inactive: vemurafenib 0.011 | [1] 0.019 | barasertib 0.027 | [2] -0.019 | volasertib -0.011 | [3] -0.02 | [4] -0.005 | [5] -0.021 | saracatinib 0.002 | sotrastaurin 0.001 | alvocidib -0.001 | Tubastatin A 0.005 | [6] 0.018 | defactinib 0.008 | [7] 0.009 | encorafenib 0.017 | [8] -0.038 | alisertib -0.02 | [9] -0.001 | gefitinib 0.009

PUSL1 (UniProt Q8N0Z8)
inactive: vemurafenib 0.114 | [1] -0.097 | barasertib 0.077 | [2] -0.022 | volasertib 0.029 | [3] -0.101 | [4] 0.023 | [5] 0.028 | saracatinib -0.223 | sotrastaurin -0.085 | alvocidib 0.007 | Tubastatin A -0.038 | [6] -0.009 | defactinib -0.109 | [7] 0.08 | encorafenib 0.188 | [8] -0.301 | alisertib 0.039 | [9] -0.029 | gefitinib -0.045
